Source: PMC5891081
No constants are given. Whether binding was seen depends on the method and setting. In cells and extracts the contact can be indirect. Binding calls can cover weak binding; strength is not graded here. Tags and fused reporters may be left off the sequences shown.

Substrate: CBP (exogenously overexpressed in HEK293 cells)
Assay: cross-linking + co-IP; DSP-mediated in vivo cross-linking in HEK293 cells overexpressing p300 or CBP and expressing RAD52-HA or GST-HA, with or without doxorubicin; immunoprecipitation with anti-p300 or anti-CBP antibodies

B1: RAD52-HA (protein, UniProt P43351 1-418)
chain: MSGTEEAILGGRDSHPAAGGGSVLCFGQCQYTAEEYQAIQKALRQRLGPEYISSRMAGGGQKVCYIEGHRVINLANEMFGYNGWAHSITQQNVDFVDLNNGKFYVGVCAFVRVQLKDGSYHEDVGYGVSEGLKSKALSLEKARKEAVTDGLKRALRSFGNALGNCILDKDYLRSLNKLPRQLPLEVDLTKAKRQDLEPSVEEARYNSCRPNMALGHPQLQQVTSPSRPSHAVIPADQDCSSRSLSSSAVESEATHQRKLRQKQLQQQFRERMEKQQVRVSTPSAEKSEAAPPAPPVTHSTPVTVSEPLLEKDFLAGVTQELIKTLEDNSEKWAVTPDAGDGVVKPSSRADPAQTSDTLALNNQMVTQNRTPHSVCHQKPQAKSGSWDLQTYSADQRTTGNWESHRKSQDMKKRKYDPS
Q: Which binding does the source give for B1 here?
A: binds
